In patent US20250017962A1 (US Dept. of Health and Human Services, published 2025):
These are yes or no findings as the source states them, for the method shown. Some entries that bind do so weakly or less than the wild type. Blank lines part the entries; values can stand above or below the binder they belong to.

Sequences of proteins named here, by UniProt entry; tags and fusion partners are left off. Residues count along the entry.
UniProt P51654, residues 25-559: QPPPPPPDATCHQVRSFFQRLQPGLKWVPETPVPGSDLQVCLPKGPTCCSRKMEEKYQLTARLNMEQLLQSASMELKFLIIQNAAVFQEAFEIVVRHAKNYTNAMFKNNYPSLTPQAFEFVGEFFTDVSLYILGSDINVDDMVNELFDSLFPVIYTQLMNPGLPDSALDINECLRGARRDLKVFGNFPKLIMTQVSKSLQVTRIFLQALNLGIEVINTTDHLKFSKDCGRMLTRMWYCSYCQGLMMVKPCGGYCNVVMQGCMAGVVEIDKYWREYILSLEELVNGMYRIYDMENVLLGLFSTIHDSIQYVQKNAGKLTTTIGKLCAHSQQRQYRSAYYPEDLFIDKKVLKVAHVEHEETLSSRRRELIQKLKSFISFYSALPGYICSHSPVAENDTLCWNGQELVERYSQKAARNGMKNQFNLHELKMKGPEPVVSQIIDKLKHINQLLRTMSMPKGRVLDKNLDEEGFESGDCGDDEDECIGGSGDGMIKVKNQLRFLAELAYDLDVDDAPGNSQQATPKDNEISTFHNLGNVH

Columns and labels:
[1] = molecular target: GPC3 tagged with human Fc (GPC3-hFc) (UniProt P51654); assay: flow cytometry, GPC3-hFc on CAR-expressing Jurkat cells
[2] = molecular target: GPC3 tagged with human Fc (GPC3-hFc) (UniProt P51654); assay: Jurkat binding assay, flow cytometry

binding [1]: binds
binding [2]: binds
B1: HN3-IgG4H-CD8TM CAR (other)
chain: HMQVQLVQSGGGLVQPGGSLRLSCAASYFDFDSYEMSWVRQAPGKGLEWIGSIYHSGSTYYNPSLKSRVTISRDNSKNTLYLQMNTLRAEDTATYYCARVNMDRFDYWGQGTLVTVSSTSESKYGPPCPPCPIYIWAPLAGTCGVLLLSLVITKRGRKKLLYIFKQPFMRPVQTTQEEDGCSCRFPEEEEGGCELRVKFSRSADAPAYQQGQNQLYNELNLGRREEYDVLDKRRGRDPEMGGKPRRKNPQEGLYNELQKDKMAEAYSEIGMKGERRRGKGHDGLYQGLSTATKDTYDALHMQALPPR

binding [1]: binds
binding [2]: binds
B2: HN3-IgG4H-CD28TM CAR (other)
chain: HMQVQLVQSGGGLVQPGGSLRLSCAASYFDFDSYEMSWVRQAPGKGLEWIGSIYHSGSTYYNPSLKSRVTISRDNSKNTLYLQMNTLRAEDTATYYCARVNMDRFDYWGQGTLVTVSSTSESKYGPPCPPCPFWVLVVVGGVLACYSLLVTVAFIIFWVKRGRKKLLYIFKQPFMRPVQTTQEEDGCSCRFPEEEEGGCELRVKFSRSADAPAYQQGQNQLYNELNLGRREEYDVLDKRRGRDPEMGGKPRRKNPQEGLYNELQKDKMAEAYSEIGMKGERRRGKGHDGLYQGLSTATKDTYDALHMQALPPR
notes: also called HN3-IgG4-CD28TM; HN3-IgGH-CD28TM
